Assay results taken from article doi:10.1101/2025.04.19.649636.
Where two headings read alike, the source gives them in different places. These are yes or no findings as the source states them, for the method shown. Binding seen in cells or lysates may run through a third protein. Some entries that bind do so weakly or less than the wild type. One block for each molecule: values may come before it.

By UniProt entry, the sequences of proteins in these tests, tags left out. Residues count along the entry.
UniProt Q96CG8, residues 31-243: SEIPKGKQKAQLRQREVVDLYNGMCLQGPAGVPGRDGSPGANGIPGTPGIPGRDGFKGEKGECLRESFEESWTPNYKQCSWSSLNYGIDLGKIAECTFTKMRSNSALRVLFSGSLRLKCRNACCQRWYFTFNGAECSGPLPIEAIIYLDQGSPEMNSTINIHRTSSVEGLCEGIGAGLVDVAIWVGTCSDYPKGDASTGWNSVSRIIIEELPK
UniProt Q13443, residues 29-819: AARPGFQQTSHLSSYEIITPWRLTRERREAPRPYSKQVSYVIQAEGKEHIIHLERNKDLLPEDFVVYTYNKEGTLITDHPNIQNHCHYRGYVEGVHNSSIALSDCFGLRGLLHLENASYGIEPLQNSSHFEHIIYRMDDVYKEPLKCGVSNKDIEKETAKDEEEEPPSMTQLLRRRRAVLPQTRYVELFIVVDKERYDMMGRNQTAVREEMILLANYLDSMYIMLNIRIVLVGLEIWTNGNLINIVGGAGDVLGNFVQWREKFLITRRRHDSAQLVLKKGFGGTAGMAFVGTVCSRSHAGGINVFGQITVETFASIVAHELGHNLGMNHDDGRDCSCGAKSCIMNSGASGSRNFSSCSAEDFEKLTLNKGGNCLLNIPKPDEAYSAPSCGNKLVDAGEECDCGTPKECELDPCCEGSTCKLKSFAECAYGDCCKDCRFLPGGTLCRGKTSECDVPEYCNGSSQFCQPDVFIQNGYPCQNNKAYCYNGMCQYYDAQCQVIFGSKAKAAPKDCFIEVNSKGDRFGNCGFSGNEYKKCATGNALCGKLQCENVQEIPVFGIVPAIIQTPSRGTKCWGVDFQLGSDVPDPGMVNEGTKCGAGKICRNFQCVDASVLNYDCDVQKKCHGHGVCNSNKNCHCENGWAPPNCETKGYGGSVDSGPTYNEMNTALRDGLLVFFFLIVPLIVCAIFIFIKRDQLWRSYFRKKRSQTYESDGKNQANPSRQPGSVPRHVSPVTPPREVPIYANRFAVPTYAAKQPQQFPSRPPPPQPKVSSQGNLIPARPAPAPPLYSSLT

Legend:
[1] = target: recombinant human CTHRC1 Protein (human) (UniProt Q96CG8); experiment: co-IP
[2] = target: recombinant human CTHRC1 Protein (human) (UniProt Q96CG8); experiment: co-IP; remark: listed apart in the source

binding [1]: binds
Molecule: ADAM9 of human aortic smooth muscle cells (from UniProt Q13443 29-819)

binding [2]: binds
B1: ADAM metallopeptidase domain 9 (ADAM9) of MOVAS cells (protein, UniProt Q61072 30-845)
chain: GRPDLEQTVHLSSYEIITPWRLTRERREALGPSSQQISYVIQAQGKQHIIHLERNTDLLPNDFVVYTYDKEGSLLSDHPNVQSHCHYRGYVEGVQNSAVAVSACFGLRGLLHLENASFGIEPLHNSSHFEHIFYPMDGIHQEPLRCGVSNRDTEKEGTQGDEEEHPSVTQLLRRRRAVLPQTRYVELFIVVDKERYDMMGRNQTAVREEMIRLANYLDSMYIMLNIRIVLVGLEIWTDRNPINIIGGAGDVLGNFVQWREKFLITRWRHDSAQLVLKKGFGGTAGMAFVGTVCSRSHAGGINVFGQITVETFASIVAHELGHNLGMNHDDGRECFCGAKSCIMNSGASGSRNFSSCSAEDFEKLTLNKGGSCLLNIPKPDEAYSAPSCGNKLVDPGEECDCGTAKECEVDPCCEGSTCKLKSFAECAYGDCCKDCQFLPGGSMCRGKTSECDVPEYCNGSSQFCPPDVFIQNGYPCQNSKAYCYNGMCQYYDAQCQVIFGSKAKAAPRDCFIEVNSKGDRFGNCGFSGSEYKKCATGNALCGKLQCENVQDMPVFGIVPAIIQTPSRGTKCWGVDFQLGSDVPDPGMVNEGTKCDAGKICRNFQCVNASVLNYDCDIQGKCHGHGVCNSNKNCHCEDGWAPPHCDTKGYGGSVDSGPTYNAKSTALRDGLLVFFFLIVPLVAAAIFLFIKRDELRKTFRKKRSQMSDGRNQANVSRQPGDPSISRPPGGPNVSRPPGGPGVSRPPGGPGVSRPPGGPGVSRPPPGHGNRFPVPTYAAKQPAQFPSRPPPPQPKISSQGNLIPARPAPAPPLYSSLT
